Measured values from article doi:10.1101/2022.10.03.510455.
Results are given in words; binding and its absence hold for the method and conditions named. Some entries that bind do so weakly or less than the wild type. Where a sequence is shown, tags or fusion partners need not be part of it.

Protein sequences, listed by entry. Tags and fused reporters are not part of them.
UniProt P49815: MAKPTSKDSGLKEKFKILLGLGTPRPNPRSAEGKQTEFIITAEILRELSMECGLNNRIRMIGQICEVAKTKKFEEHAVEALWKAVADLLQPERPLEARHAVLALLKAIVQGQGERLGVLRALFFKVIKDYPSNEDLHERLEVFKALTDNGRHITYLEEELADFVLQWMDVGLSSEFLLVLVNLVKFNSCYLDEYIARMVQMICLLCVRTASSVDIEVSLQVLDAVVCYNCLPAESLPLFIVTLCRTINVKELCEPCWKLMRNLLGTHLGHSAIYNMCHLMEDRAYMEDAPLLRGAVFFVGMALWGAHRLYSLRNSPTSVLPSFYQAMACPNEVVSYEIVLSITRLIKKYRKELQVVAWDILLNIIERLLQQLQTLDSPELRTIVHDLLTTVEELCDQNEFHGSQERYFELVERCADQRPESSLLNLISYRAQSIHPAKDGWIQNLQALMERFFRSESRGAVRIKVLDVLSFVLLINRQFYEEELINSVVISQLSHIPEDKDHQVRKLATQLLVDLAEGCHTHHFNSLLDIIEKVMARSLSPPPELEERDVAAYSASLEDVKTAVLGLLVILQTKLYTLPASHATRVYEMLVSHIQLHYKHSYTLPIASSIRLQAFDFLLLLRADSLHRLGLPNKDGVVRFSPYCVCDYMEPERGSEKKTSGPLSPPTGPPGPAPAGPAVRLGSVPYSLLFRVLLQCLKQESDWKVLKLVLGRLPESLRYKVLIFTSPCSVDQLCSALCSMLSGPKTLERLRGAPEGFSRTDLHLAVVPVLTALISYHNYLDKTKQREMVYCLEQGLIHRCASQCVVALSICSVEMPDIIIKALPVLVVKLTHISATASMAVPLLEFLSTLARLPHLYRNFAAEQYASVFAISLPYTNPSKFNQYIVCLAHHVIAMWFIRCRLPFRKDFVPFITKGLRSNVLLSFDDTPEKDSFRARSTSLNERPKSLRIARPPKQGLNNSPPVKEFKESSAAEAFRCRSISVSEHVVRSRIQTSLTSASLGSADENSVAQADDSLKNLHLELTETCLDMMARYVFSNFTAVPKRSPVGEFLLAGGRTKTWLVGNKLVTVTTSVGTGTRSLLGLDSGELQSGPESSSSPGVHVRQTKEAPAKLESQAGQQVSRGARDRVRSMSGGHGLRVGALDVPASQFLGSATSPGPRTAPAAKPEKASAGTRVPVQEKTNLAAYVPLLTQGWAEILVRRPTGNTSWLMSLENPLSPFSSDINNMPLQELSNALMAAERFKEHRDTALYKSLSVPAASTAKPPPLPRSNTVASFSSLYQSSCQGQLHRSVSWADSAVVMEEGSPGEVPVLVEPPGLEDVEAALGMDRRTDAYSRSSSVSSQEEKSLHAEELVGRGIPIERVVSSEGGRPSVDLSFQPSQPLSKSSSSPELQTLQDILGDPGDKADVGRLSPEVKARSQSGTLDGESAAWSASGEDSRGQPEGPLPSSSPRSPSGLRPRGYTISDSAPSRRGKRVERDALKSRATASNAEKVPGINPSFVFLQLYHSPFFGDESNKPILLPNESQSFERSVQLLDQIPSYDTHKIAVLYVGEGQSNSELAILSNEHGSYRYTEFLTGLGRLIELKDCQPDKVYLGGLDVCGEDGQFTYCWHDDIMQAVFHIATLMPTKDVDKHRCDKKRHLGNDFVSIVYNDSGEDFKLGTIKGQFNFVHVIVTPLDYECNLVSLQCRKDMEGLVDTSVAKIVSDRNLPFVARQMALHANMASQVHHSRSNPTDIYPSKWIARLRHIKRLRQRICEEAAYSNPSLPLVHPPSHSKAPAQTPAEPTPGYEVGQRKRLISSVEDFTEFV

Target: FLAG tagged TSC2 (UniProt P49815)
Experiment: single molecule pulldown

binding: binds
B1: Myc tagged TSC1 (protein, UniProt Q92574 1-1164)
chain: MAQQANVGELLAMLDSPMLGVRDDVTAVFKENLNSDRGPMLVNTLVDYYLETSSQPALHILTTLQEPHDKHLLDRINEYVGKAATRLSILSLLGHVIRLQPSWKHKLSQAPLLPSLLKCLKMDTDVVVLTTGVLVLITMLPMIPQSGKQHLLDFFDIFGRLSSWCLKKPGHVAEVYLVHLHASVYALFHRLYGMYPCNFVSFLRSHYSMKENLETFEEVVKPMMEHVRIHPELVTGSKDHELDPRRWKRLETHDVVIECAKISLDPTEASYEDGYSVSHQISARFPHRSADVTTSPYADTQNSYGCATSTPYSTSRLMLLNMPGQLPQTLSSPSTRLITEPPQATLWSPSMVCGMTTPPTSPGNVPPDLSHPYSKVFGTTAGGKGTPLGTPATSPPPAPLCHSDDYVHISLPQATVTPPRKEERMDSARPCLHRQHHLLNDRGSEEPPGSKGSVTLSDLPGFLGDLASEEDSIEKDKEEAAISRELSEITTAEAEPVVPRGGFDSPFYRDSLPGSQRKTHSAASSSQGASVNPEPLHSSLDKLGPDTPKQAFTPIDLPCGSADESPAGDRECQTSLETSIFTPSPCKIPPPTRVGFGSGQPPPYDHLFEVALPKTAHHFVIRKTEELLKKAKGNTEEDGVPSTSPMEVLDRLIQQGADAHSKELNKLPLPSKSVDWTHFGGSPPSDEIRTLRDQLLLLHNQLLYERFKRQQHALRNRRLLRKVIKAAALEEHNAAMKDQLKLQEKDIQMWKVSLQKEQARYNQLQEQRDTMVTKLHSQIRQLQHDREEFYNQSQELQTKLEDCRNMIAELRIELKKANNKVCHTELLLSQVSQKLSNSESVQQQMEFLNRQLLVLGEVNELYLEQLQNKHSDTTKEVEMMKAAYRKELEKNRSHVLQQTQRLDTSQKRILELESHLAKKDHLLLEQKKYLEDVKLQARGQLQAAESRYEAQKRITQVFELEILDLYGRLEKDGLLKKLEEEKAEAAEAAEERLDCCNDGCSDSMVGHNEEASGHNGETKTPRPSSARGSSGSRGGGGSSSSSSELSTPEKPPHQRAGPFSSRWETTMGEASASIPTTVGSLPSSKSFLGMKARELFRNKSESQCDEDGMTSSLSESLKTELGKDLGVEAKIPLNLDGPHPSPPTPDSVGQLHIMDYNETHHEHS
